This is one part of the list.
What follows are sequences tested against T1, OsSMF1 (Oryza sativa, UniProt Q6ZLB0 1-436) (assay: protein-binding microarray (RPBM); PBS, 2% BSA, 51.3 ng/ul salmon testes DNA, 50 uM zinc acetate, 200 nM TF, 25 C, 1 h; high values mean tight binding). Details: protein: recombinant; tags: N-terminal polyhistidine and DsRed monomer fusion (pET32a); chain copies: 2; label: CyDye5-dUTP incorporated in the synthesized complementary strand; 3' TTTTT single-stranded linker to array surface; dsDNA, one strand shown.
T1 sequence: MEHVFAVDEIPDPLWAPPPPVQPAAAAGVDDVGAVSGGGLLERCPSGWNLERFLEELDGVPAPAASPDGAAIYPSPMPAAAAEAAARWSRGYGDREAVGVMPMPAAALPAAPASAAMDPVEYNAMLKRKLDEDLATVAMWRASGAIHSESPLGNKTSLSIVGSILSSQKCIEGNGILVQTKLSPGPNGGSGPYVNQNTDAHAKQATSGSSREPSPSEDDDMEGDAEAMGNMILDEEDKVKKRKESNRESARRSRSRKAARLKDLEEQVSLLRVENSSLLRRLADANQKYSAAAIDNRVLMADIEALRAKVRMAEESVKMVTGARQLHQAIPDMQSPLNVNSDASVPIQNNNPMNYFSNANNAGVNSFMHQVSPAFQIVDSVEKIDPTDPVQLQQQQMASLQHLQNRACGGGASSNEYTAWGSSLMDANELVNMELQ
Procedure, shortened: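 Binding signal is defined as the fluorescence intensity of each feature in arbitrary units, read on an Axon 4000B scanner. Transcription factors with N-terminal polyhistidine and DsRed fusions came from E. coli BL21-CodonPlus and were purified on Ni–NTA. They were incubated at 200 nM for 1 h at 25 °C on a custom Agilent array that had been made double-stranded with Cy5-dUTP, with 50 µM zinc acetate present, and the array was washed.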

Sequence	binding signal
TGATCCGTGCCATCGTAACTATGCCTATTCAGATAAATGCCGGAGTCACCTAGTGCAG	3940 fluorescence intensity (a.u.)
AAAAGTTACTATCTCCGTTCTCAAATAGATGTCGTCATTGCGGAGTCACCTAGTGCAG	5160 fluorescence intensity (a.u.)
CGTTGTGTTGGTATGTGGTCTTCCTCCTCGTGTCTGTCGCCGGAGTCACCTAGTGCAG	19800 fluorescence intensity (a.u.)
GTCCACCAGCTGCTGCTCACGTGGATTGGGCTGAAGACGACGGAGTCACCTAGTGCAG	5030 fluorescence intensity (a.u.)
CGTGTCACCATGGACGTCTCGCTGTTAATAGGTATATAGTCGGAGTCACCTAGTGCAG	27400 fluorescence intensity (a.u.)
TTTGGACACCTATATGGGCGGGCGGGTGTATGTACAGTACCGGAGTCACCTAGTGCAG	3980 fluorescence intensity (a.u.)
GACTCTACTACGTGTAAACTCTACAGAGGCACGCCTCATGCGGAGTCACCTAGTGCAG	3290 fluorescence intensity (a.u.)
TTGGCGGTGATCGAGGTTAGACATCTCACCGTCAATCTTGCGGAGTCACCTAGTGCAG	3180 fluorescence intensity (a.u.)
CCACGCACCCCACGGACGTGTCGGCCGCCAGAAGCTCCGGCGGAGTCACCTAGTGCAG	3310 fluorescence intensity (a.u.)
TTTCGTTAATGGAGACTGACATCATGGATTTTAGTTTCCTCGGAGTCACCTAGTGCAG	3750 fluorescence intensity (a.u.)
GGTCACAACCAATCCAACTCATTCACTTGGTTCCCAGCTCCGGAGTCACCTAGTGCAG	3800 fluorescence intensity (a.u.)
CCTCCGCGCCCACGCCACGCCGTGGACGACGACGACGCCGCGGAGTCACCTAGTGCAG	3450 fluorescence intensity (a.u.)
GCTTGAGCAGTAGAGATTCAGCGATACTGATGCACCAGTCCGGAGTCACCTAGTGCAG	18500 fluorescence intensity (a.u.)
TCGTGGGAATGGCTGAGGATTAGGGCGCCACGTCATCGTTCGGAGTCACCTAGTGCAG	45600 fluorescence intensity (a.u.)
ACACTAACGCTAGTGCGTCATGACGCTAAGATGTACCTTTCGGAGTCACCTAGTGCAG	5680 fluorescence intensity (a.u.)
TCTAGCTTTTGCAAAAGGTGTGACACCACCCACGGTACAGCGGAGTCACCTAGTGCAG	3780 fluorescence intensity (a.u.)
TCCCGAAATAACAAAAGCAGCTCCACGTTTATTTGTCACACGGAGTCACCTAGTGCAG	4040 fluorescence intensity (a.u.)
TGAGCCATTAGCGCATGATTAATTGAGTATTAAATATTTTCGGAGTCACCTAGTGCAG	33900 fluorescence intensity (a.u.)
AAACTGCAACAACCGCCACGCCAGAGTCCACCGCACGCCACGGAGTCACCTAGTGCAG	6650 fluorescence intensity (a.u.)
AATTCCGCCGCCGCCAAGCGGCCTCGCCCTCGCGTCGTCACGGAGTCACCTAGTGCAG	3870 fluorescence intensity (a.u.)
GCTACCAGAGGTTTAGTTTTCCACGTGTTAATTAGATTGGCGGAGTCACCTAGTGCAG	8410 fluorescence intensity (a.u.)

Sequence	binding signal
CCTGTTCTCCTGTCATCCCCTATTTAATTTGTTGAACTAGCGGAGTCACCTAGTGCAG	4440 fluorescence intensity (a.u.)
CCCTTGTCATCGTCATCCGATTGTGCCTTCCCTGATTTTCCGGAGTCACCTAGTGCAG	28000 fluorescence intensity (a.u.)
GCGAGATGATGCAATCCACGAACAGTTTGATGACATATCTCGGAGTCACCTAGTGCAG	4090 fluorescence intensity (a.u.)
AACAGTGCACATCCGTATGTGTCATGGTCAACTAGGCAACCGGAGTCACCTAGTGCAG	6010 fluorescence intensity (a.u.)
GGTCAGAGTTGCATCCCGGCCACTGGCCAGCCACGACGACCGGAGTCACCTAGTGCAG	4420 fluorescence intensity (a.u.)
TAACATATATATATATATATATATATATATATATATATATCGGAGTCACCTAGTGCAG	3200 fluorescence intensity (a.u.)
TGTGGGCGGCCATACTTGCGGTGACAGTGTGACGCACATGCGGAGTCACCTAGTGCAG	6410 fluorescence intensity (a.u.)
GAGGATCCGATTCCGCTATAGTGACACATGTCGGTGAACACGGAGTCACCTAGTGCAG	3450 fluorescence intensity (a.u.)
TTGAATGTTTTCCAAAACGTAATATTTCAAATTAAGTTTGCGGAGTCACCTAGTGCAG	30500 fluorescence intensity (a.u.)
TTTATTCTGCGCATTGGGATCAACTATGACAGGTCACTACCGGAGTCACCTAGTGCAG	6270 fluorescence intensity (a.u.)
AAAATTTGAGAGAGTGGCATCTGAACACTGGCATTTTGAGCGGAGTCACCTAGTGCAG	4580 fluorescence intensity (a.u.)
TGCGTTGCCAGCTCATCCCGTGGGCCCCACCCAGCCGCCTCGGAGTCACCTAGTGCAG	8050 fluorescence intensity (a.u.)
GTGTGGGCCCCACCTGGCAGTGAGTGCATGCTTGTGCTATCGGAGTCACCTAGTGCAG	3460 fluorescence intensity (a.u.)
AGTAAATACAAAAGAAATCCTGTCAAAACTTGGTAATATTCGGAGTCACCTAGTGCAG	29700 fluorescence intensity (a.u.)
TGATGCATGCTGCTATGGTGCTGACTAGCTAGCAACCAGCCGGAGTCACCTAGTGCAG	3250 fluorescence intensity (a.u.)
CGAGTATCTTCCCTTTCCTTGCGTGTAAAAGAAAGTCTCCCGGAGTCACCTAGTGCAG	4780 fluorescence intensity (a.u.)
TGGGCATATGGCGTGTCATTACATCAAGCAGATCAAGCTGCGGAGTCACCTAGTGCAG	7260 fluorescence intensity (a.u.)
ACCTGCTGTTCTGCCACACAAGCAAGCAACCGCCGCGGGTCGGAGTCACCTAGTGCAG	6140 fluorescence intensity (a.u.)
TCCAGGGCGGCACGCCAGCGGCATCGGATAGGCGCGGAGCCGGAGTCACCTAGTGCAG	3380 fluorescence intensity (a.u.)
GATGTGAATAATGCGTGACGTTGACGTGACATATCACGTACGGAGTCACCTAGTGCAG	7580 fluorescence intensity (a.u.)
AGCCGTTACCTCGTCCTCGACACGCCATCCTTTTCCTCCCCGGAGTCACCTAGTGCAG	6780 fluorescence intensity (a.u.)

Already shown: entries from further up.
Sequence	binding signal
AAAATTTGAGAGAGTGGCATCTGAACACTGGCATTTTGAGCGGAGTCACCTAGTGCAG	4580 fluorescence intensity (a.u.)
TGCGTTGCCAGCTCATCCCGTGGGCCCCACCCAGCCGCCTCGGAGTCACCTAGTGCAG	8050 fluorescence intensity (a.u.)
